Test results from PMC8390757.

Target: FLAG-tagged PTENα (bait of the FLAG pull-down with mass spectrometry) (UniProt P60484)
Test: affinity purification with mass spectrometry; FLAG-tagged PTENα expressed in cells treated with 100 μM H2O2; whole-cell extracts on FLAG-beads, washed four times with PBS with 0.1% NP40, eluted with 3× FLAG-peptide, SDS-PAGE, in-gel trypsin digestion, LTQ Orbitrap Elite

binding: binds
B1: ZC3HAV1 (protein, UniProt Q3UPF5 1-996)
chain: MTDPEVFCFITKILCAHGGRMTLEELLGEISLPEAQLYELLKAAGPDRFVLLETGDQAGITRSVVATTRARVCRRKYCQRPCDSLHLCKLNLLGRCHYAQSQRNLCKYSHDVLSEQNFQVLKNHELSGLNQEELAVLLVQSDPFFMPEICKSYKGEGRKQICGQPQPCERLHICEHFTRGNCSYLNCLRSHNLMDRKVLAIMREHGLSSDVVQNIQDICNNKHTRRNPPSMRAPHPHRRGGAHRDRSKSRDRFHHNSLEVLSTVSPLGSGPPSPDVTGCKDPLEDVSADVTQKFKYLGTQDRAQLSSVSSKAAGVRGPSQMRASQEFLEDGDPDGLFSRNRSDSSTSRTSAAGFPLVAAQRNEAGAMKMGMPSGHHVEVKGKNEDIDRVPFLNSYIDGVTMEEATVSGILGKRATDNGLEEMILSSNHQKSVAKTQDPQTAGRITDSGQDTAFLHSKYEENPAWPGTSTHNGPNGFSQIMDETPNVSKSSPTGFGIKSAVTGGKEAVYSGVQSLRSHVLAMPGETTTPVQGSNRLPPSPLSSSTSHRVAASGSPGKSSTHASVSPASEPSRMMMMMSDPAEYSLCYIVNPVSPRMDDHGLKEICLDHLYRGCQQVNCNKNHFHLPYRWQLFILPTWMDFQDMEYIERAYCDPQIEIIVIEKHRINFKKMTCDSYPIRRLSTPSFVEKTLNSVFTTKWLWYWRNELNEYTQYGHESPSHTSSEINSAYLESFFHSCPRGVLQFHAGSQNYELSFQGMIQTNIASKTQRHVVRRPVFVSSKDVEQKRRGPDHQPVMPQADALTLFSSPQRNASTVSSNEYEFIELNNQDEEYAKISEQFKASMKQFKIVTIKRIWNQKLWDTFERKKQKMKNKTEMFLFHAVGRIHMDYICKNNFEWILHGNREIRYGKGNYFTKEAMYSHKSCSYDSRGTVMFVARVLVGSVIEGNMTLSSPPALYDSCVDTRLNPSVFVIFRKEQIYPEYVIEYMELEKEKGCIIS

Results are given in words; binding and its absence hold for the method and conditions named. In cells and extracts the contact can be indirect. A yes stands for co-enrichment or nearness to the bait. Other partners may have been found.
